Patent US4826856A, “Calcium antagonistic dihydropyridine derivative” (Yason s.r.l., priority 1985, dated 1989)
At least one compound was matched to its structure with a doubt left.

Tested on: Sprague-Dawley rats
Assay: Ventricular arrhythmias after re-circulation
Type: in vivo, rat
Conditions: 15 mg/kg, P=0.02
Procedure: Ventricular arrhythmias after coronary artery ligation in the acute phase or during the period of re-circulation
Sprague-Dawley rats were subjected to ligation of the left coronary artery according to the method of Clark et al. in J. Pharmacol. Methods 3, 357-368, 1980. The drugs were administered by gastric tube 30 minutes before the ligation. By means of a continuous electrocardiographic recording, the ventricular arrhythmias such as ectopic beats (EB), ventricular tachycardia (VT), ventricular fibrillation (VF) for 30 minutes after ligation, were recorded.

CCOC(=O)C1=C(C)NC(C)=C(C(=O)OCCN2CCCCC2)C1c1cccc([N+](=O)[O-])c1 (stereo not drawn) [YS 201, ethyl-(β-piperidinoethyl)-2,6-dimethyl-4-(3-nitrophenyl)-1,4-dihydropyridine-3,5-dicarboxylate]
death: completely suppressed
